Data published in article doi:10.1101/2022.08.03.502613.
Results are given in words; binding and its absence hold for the method and conditions named. Binding seen in cells or lysates may run through a third protein. Some results given as binding are weak or reduced against the parent protein; the word gives no strength.

The chains behind the UniProt entries cited, without tags or fusion partners.
UniProt Q96CW5: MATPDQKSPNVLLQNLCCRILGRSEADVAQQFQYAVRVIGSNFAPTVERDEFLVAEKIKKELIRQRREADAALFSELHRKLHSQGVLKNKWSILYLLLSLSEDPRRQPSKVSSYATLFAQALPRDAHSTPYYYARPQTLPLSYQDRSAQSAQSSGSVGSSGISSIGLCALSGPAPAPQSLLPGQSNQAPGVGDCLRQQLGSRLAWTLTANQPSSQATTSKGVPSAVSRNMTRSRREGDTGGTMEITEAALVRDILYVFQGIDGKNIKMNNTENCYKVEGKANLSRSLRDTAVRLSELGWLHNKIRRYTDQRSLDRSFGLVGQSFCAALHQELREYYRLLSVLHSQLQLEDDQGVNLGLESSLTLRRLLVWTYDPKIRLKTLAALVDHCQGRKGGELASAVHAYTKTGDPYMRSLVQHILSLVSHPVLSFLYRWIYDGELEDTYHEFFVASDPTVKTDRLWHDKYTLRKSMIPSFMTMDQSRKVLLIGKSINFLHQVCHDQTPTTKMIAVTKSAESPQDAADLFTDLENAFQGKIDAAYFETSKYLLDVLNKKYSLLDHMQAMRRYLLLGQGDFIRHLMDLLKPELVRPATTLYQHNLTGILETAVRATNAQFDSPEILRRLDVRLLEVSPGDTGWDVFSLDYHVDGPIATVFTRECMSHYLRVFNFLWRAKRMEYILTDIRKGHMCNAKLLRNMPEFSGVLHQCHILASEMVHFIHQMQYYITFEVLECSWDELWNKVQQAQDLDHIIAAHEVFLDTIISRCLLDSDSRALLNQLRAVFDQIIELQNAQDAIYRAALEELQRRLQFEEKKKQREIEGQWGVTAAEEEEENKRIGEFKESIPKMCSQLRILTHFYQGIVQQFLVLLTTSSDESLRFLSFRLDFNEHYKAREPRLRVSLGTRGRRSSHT
UniProt Q9UGJ1: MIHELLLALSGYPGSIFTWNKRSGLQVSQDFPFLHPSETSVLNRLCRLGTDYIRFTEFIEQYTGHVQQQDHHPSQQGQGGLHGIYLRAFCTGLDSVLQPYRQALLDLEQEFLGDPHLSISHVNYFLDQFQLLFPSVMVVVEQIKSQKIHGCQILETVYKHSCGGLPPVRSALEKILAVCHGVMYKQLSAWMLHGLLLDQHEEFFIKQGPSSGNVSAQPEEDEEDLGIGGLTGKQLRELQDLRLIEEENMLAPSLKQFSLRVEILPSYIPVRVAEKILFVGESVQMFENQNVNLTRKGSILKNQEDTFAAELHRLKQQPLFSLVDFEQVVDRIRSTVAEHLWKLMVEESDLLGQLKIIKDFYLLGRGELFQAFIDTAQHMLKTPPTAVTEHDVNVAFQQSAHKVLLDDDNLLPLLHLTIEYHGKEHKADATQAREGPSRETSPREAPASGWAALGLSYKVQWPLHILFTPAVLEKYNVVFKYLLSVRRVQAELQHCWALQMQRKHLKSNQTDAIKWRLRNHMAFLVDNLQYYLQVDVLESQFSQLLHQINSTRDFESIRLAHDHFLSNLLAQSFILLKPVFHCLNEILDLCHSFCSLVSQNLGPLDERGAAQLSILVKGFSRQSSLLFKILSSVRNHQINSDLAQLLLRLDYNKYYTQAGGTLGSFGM

Target: GCP3-GFP-SII (endogenously tagged GCP3) (human (endogenous in HEK293T)) (UniProt Q96CW5)
Test: pull-down

binding: binds
Substance: GCP4 (from UniProt Q9UGJ1 1-667)
